# Measurements: publication PMC12431657, “Discovery and mechanistic insights of dibenzoylmethane as a broad spectrum inhibitor of coronavirus” (PLOS Pathogens, 2025)
# Screen size: about 3,300 compounds; about 60 (2%) showed an effect of 50% or more. The list shows a part of the results.
# Tested on: HCoV-OC43
# Design: species or system RD; HTS, protection from HCoV-OC43 induced cell death, luminescent cell viability (CellCounting-Lite 2.0), inhibition rate
# Details: 24 h post infection, 1 h compound pre-incubation; 10 µM; inhibitor
row,Compound,OC43 Inhibition rate [%]
1,OCC(O)[C@@H](O)[C@H](O)[C@H](O)CO[C@H]1O[C@H](CO)[C@@H](O)[C@H](O)[C@H]1O (stereo partly shown) [Isomalt],0.6
2,"Cc1cc(=O)oc2cc(O)cc(O)c12 [5,7-Dihydroxy-4-methylcoumarin]",3.1
3,O=c1cc(-c2ccccc2)oc2cc(O)ccc12 [7-Hydroxyflavone],0.7
4,CCCCCCCC/C=C\CCCCCCCC(=O)NCC(=O)O [N-Oleoyl glycine],1.3
5,O=C(O)c1cccc(Oc2ccccc2)c1 [3-Phenoxybenzoic acid],-1.1
6,C/C=C(/C)C(=O)O[C@H]1Cc2cc3ccc(=O)oc3cc2OC1(C)C [Decursinol angelate],-0.5
7,CC(C)(O)C(=O)O [2-Hydroxyisobutyric acid],0.8
8,CN(C)[C@@H]1C(O)=C(C(N)=O)C(=O)[C@@]2(O)C(O)=C3C(=O)c4c(O)cccc4[C@@](C)(O)[C@H]3[C@H](O)[C@@H]12 [Oxytetracycline],0
9,C[N+](C)(C)CCCCC(=O)[O-] [delta-Valerobetaine],4.4
10,COc1ccc([C@@H]2CC(=O)c3c(O)cc(O[C@@H]4O[C@H](CO[C@@H]5O[C@@H](C)[C@H](O)[C@@H](O)[C@H]5O)[C@@H](O)[C@H](O)[C@H]4O)cc3O2)cc1 [Didymin],0.7
11,OC[C@H]1O[C@@](CO)(OC[C@@]2(O[C@H]3O[C@H](CO)[C@@H](O)[C@H](O)[C@H]3O)O[C@H](CO)[C@@H](O)[C@@H]2O)[C@@H](O)[C@@H]1O [1-Kestose],-0.8
12,Cc1ccc(C(N)=O)cn1 [6-Methylnicotinamide],8.3
13,CC(C)C[C@@](O)(CC(=O)OCc1ccc(O[C@@H]2O[C@H](CO)[C@@H](O)[C@H](O)[C@H]2O)cc1)C(=O)OCc1ccc(O[C@@H]2O[C@H](CO)[C@@H](O)[C@H](O)[C@H]2O)cc1 [Militarine],-0.1
14,COc1ccc([C@H]2OC[C@H]3[C@@H]2CO[C@H]3c2ccc(O[C@@H]3O[C@H](CO)[C@@H](O)[C@H](O)[C@H]3O)c(OC)c2)cc1OC [Phillyrin],0.2
15,CC(=O)[C@H]1CC[C@H]2[C@@H]3CCC4=CC(=O)CC[C@]4(C)[C@H]3CC[C@]12C [Progesterone],-1
16,C[C@@H]1O[C@@H](OC[C@H]2O[C@@H](Oc3c(-c4ccc(O)cc4)oc4cc(O[C@@H]5O[C@@H](C)[C@H](O)[C@@H](O)[C@H]5O)cc(O)c4c3=O)[C@H](O)[C@@H](O)[C@H]2O)[C@H](O)[C@H](O)[C@H]1O [Robinin],-1.1

# Exported with tabs: part of the list above.
row	Compound	OC43 Inhibition rate [%]
1	OCC(O)[C@@H](O)[C@H](O)[C@H](O)CO[C@H]1O[C@H](CO)[C@@H](O)[C@H](O)[C@H]1O (stereo partly shown) [Isomalt]	0.6
2	Cc1cc(=O)oc2cc(O)cc(O)c12 [5,7-Dihydroxy-4-methylcoumarin]	3.1
3	O=c1cc(-c2ccccc2)oc2cc(O)ccc12 [7-Hydroxyflavone]	0.7
4	CCCCCCCC/C=C\CCCCCCCC(=O)NCC(=O)O [N-Oleoyl glycine]	1.3
